Taken from: PubChem BioAssay AID602196 (INSERM, 2012)
This is an unselected part of about 23,000 deposited reagents. In the full data, 455 (2%) were called active. 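Active includes both protection and sensitisation; some change values fall well beyond the stated -50 to +50 range.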 Reagent sequences are not shown. Not stated in the record: the amount of reagent.

- Assay: 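Modifiers of cisplatin sensitivity in A549 cells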
- System: human A549 lung cancer cells
- Reagents: siRNA pair against human genes
- Duration: 48 h transfection before cisplatin; time from cisplatin to read-out not stated
- Challenge: cisplatin at a dose killing half of control-siRNA cells; exact dose and duration not given
- Measured: 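Shift in cisplatin death relative to control siRNA, from -50 (all cells die) to +50 (no cells die); siRNAs harmful on their own scored 0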
- Reading the numbers: two-siRNA summed score (-2 to +2): higher = both siRNAs protect from cisplatin killing; -2 means both sensitise; mean protection from cisplatin (shift in death) and protection from cisplatin (shift in death), siRNA C and protection from cisplatin (shift in death), siRNA D: higher = protection from cisplatin killing
- Rule for the call: 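Each siRNA scores 0 if harmful alone by LDH or WST-1, otherwise +1 if it reduces and -1 if it increases cisplatin killing; a gene is active when both siRNAs agree (sum +2 or -2)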
- Calls: active = both siRNAs shift cisplatin killing the same way; inactive = no consistent shift, or siRNA harmful alone

gene knocked down	two-siRNA summed score (-2 to +2)	mean protection from cisplatin (shift in death) (%)	protection from cisplatin (shift in death), siRNA C (%)	protection from cisplatin (shift in death), siRNA D (%)	outcome
UTP11 (UTP11 small subunit processome component)	0	6.6	5.1	8.1	inactive
HORMAD1 (HORMA domain containing 1)	0	2	3.2	0.7	inactive
SYNM (synemin)	1	3.6	15.9	-8.7	inactive
FAM216A (family with sequence similarity 216 member A)	1	12.6	12.5	12.6	inactive
TAL1	1	10.1	4.5	15.8	inactive
NCAPH (non-SMC condensin I complex subunit H)	0	12.3	16	8.6	inactive
LOC441074	0	5.3	6.9	3.6	inactive
PRH2 (proline rich protein HaeIII subfamily 2)	0	6.9	-0.2	13.9	inactive
MYO18B (myosin XVIIIB)	0	3	9.5	-3.4	inactive
PFDN2 (prefoldin subunit 2)	1	14.6	12.3	16.9	inactive
CEP72 (centrosomal protein 72)	-1	-13.4	-29.6	2.8	inactive
LOC159176	1	17.7	12.4	22.9	inactive
AGBL1 (AGBL carboxypeptidase 1)	0	11.8	12.3	11.3	inactive
TRMT1L (tRNA methyltransferase 1L)	0	3.1	4.1	2.1	inactive
FHOD1 (formin homology 2 domain containing 1)	0	9.3	8.2	10.3	inactive
SPATA4 (spermatogenesis associated 4)	0	3.8	10	-2.4	inactive
H2BC1 (H2B clustered histone 1)	0	-13.5	-5.8	-21.2	inactive
SGIP1 (SH3GL interacting endocytic adaptor 1)	1	13.6	20.6	6.6	inactive
TMED7 (transmembrane p24 trafficking protein 7)	0	6.8	5.1	8.6	inactive
TRPM2	0	-1.8	15.1	-18.7	inactive
ALDH1A1 (aldehyde dehydrogenase 1 family member A1)	0	-1.8	1.4	-5.1	inactive

5 of these entries, reformatted:
{"gene knocked down":"NCAPH (non-SMC condensin I complex subunit H)","two-siRNA summed score (-2 to +2)":0,"mean protection from cisplatin (shift in death) (%)":12.3,"protection from cisplatin (shift in death), siRNA C (%)":16,"protection from cisplatin (shift in death), siRNA D (%)":8.6,"outcome":"inactive"}
{"gene knocked down":"LOC441074","two-siRNA summed score (-2 to +2)":0,"mean protection from cisplatin (shift in death) (%)":5.3,"protection from cisplatin (shift in death), siRNA C (%)":6.9,"protection from cisplatin (shift in death), siRNA D (%)":3.6,"outcome":"inactive"}
{"gene knocked down":"PRH2 (proline rich protein HaeIII subfamily 2)","two-siRNA summed score (-2 to +2)":0,"mean protection from cisplatin (shift in death) (%)":6.9,"protection from cisplatin (shift in death), siRNA C (%)":-0.2,"protection from cisplatin (shift in death), siRNA D (%)":13.9,"outcome":"inactive"}
{"gene knocked down":"MYO18B (myosin XVIIIB)","two-siRNA summed score (-2 to +2)":0,"mean protection from cisplatin (shift in death) (%)":3,"protection from cisplatin (shift in death), siRNA C (%)":9.5,"protection from cisplatin (shift in death), siRNA D (%)":-3.4,"outcome":"inactive"}
{"gene knocked down":"PFDN2 (prefoldin subunit 2)","two-siRNA summed score (-2 to +2)":1,"mean protection from cisplatin (shift in death) (%)":14.6,"protection from cisplatin (shift in death), siRNA C (%)":12.3,"protection from cisplatin (shift in death), siRNA D (%)":16.9,"outcome":"inactive"}

Next entries follow:
gene knocked down	two-siRNA summed score (-2 to +2)	mean protection from cisplatin (shift in death) (%)	protection from cisplatin (shift in death), siRNA C (%)	protection from cisplatin (shift in death), siRNA D (%)	outcome
FLJ38359	0	7.4	11.2	3.6	inactive
LOC389055	0	-1.3	5.6	-8.2	inactive
SLX1B (structure-specific endonuclease subunit SLX1B)	0	6.2	5.3	7.1	inactive
LOC255798	0	-1.2	-7.9	5.6	inactive
DUS1L (dihydrouridine synthase 1 like)	0	-7.5	-4.1	-10.9	inactive
SBDS (SBDS ribosome maturation factor)	0	1.8	1.6	2.1	inactive
MUCL3 (mucin like 3)	1	12.8	18.1	7.5	inactive
STARD4 (StAR related lipid transfer domain containing 4)	0	7.4	6.2	8.7	inactive
AADACP1 (arylacetamide deacetylase pseudogene 1)	1	11.7	2.7	20.6	inactive
LGALS3BP (galectin 3 binding protein)	0	-4.7	8.6	-17.9	inactive
PTPDC1 (protein tyrosine phosphatase domain containing 1)	0	-2.1	-5.5	1.4	inactive
ZCCHC4 (zinc finger CCHC-type containing 4)	0	0.2	2.8	-2.3	inactive
CTNNA3 (catenin alpha 3)	0	-0.7	-9.4	8.1	inactive
GIGYF1 (GRB10 interacting GYF protein 1)	-1	-3.2	-25.5	19.1	inactive
POLDIP3 (DNA polymerase delta interacting protein 3)	1	7.8	15.3	0.2	inactive
ZNF207 (zinc finger protein 207)	0	-6.1	-13.2	1	inactive
LOC389325	1	24.4	20	28.7	inactive
FRG1BP (FSHD region gene 1 family member B, pseudogene)	0	-7.4	-11	-3.8	inactive
PDE12 (phosphodiesterase 12)	-1	2.8	-6.3	12	inactive
LOC441077	1	8.3	-1.9	18.5	inactive
SEMA3D (semaphorin 3D)	0	7.6	6.4	8.8	inactive
HS3ST4 (heparan sulfate-glucosamine 3-sulfotransferase 4)	0	-6.7	-10.4	-2.9	inactive
SELENOH (selenoprotein H)	0	2.2	8.4	-3.9	inactive
LOC442070	0	17.6	10.4	24.9	inactive
NPHS1 (NPHS1 adhesion molecule, nephrin)	0	-7.4	-18	3.2	inactive
ZNF528 (zinc finger protein 528)	0	0.1	0.1	0.1	inactive
C10orf90 (chromosome 10 open reading frame 90)	0	-4	2.3	-10.4	inactive
RHBDD2 (rhomboid domain containing 2)	1	11.3	19.4	3.2	inactive
LOC440245	1	7	0.5	13.5	inactive
MGC40489	0	6.5	1	12.1	inactive
SYT17 (synaptotagmin 17)	0	7	8.9	5.1	inactive
BCL2A1 (BCL2 related protein A1)	0	5.4	4.7	6.1	inactive
ZNF66 (zinc finger protein 66)	1	11.7	7.9	15.5	inactive
MED18 (mediator complex subunit 18)	0	-7	2.9	-16.9	inactive
C4A (complement C4A (Chido/Rodgers blood group))	0	37.3	6.2	68.4	inactive
OTOR (otoraplin)	0	6.2	1.2	11.2	inactive
